Results deposited as PubChem BioAssay AID493246 (Drosophila RNAi Screening Center, 2011).
Purpose: 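Genome-wide search for dsRNAs that reduce cell number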 (primary screen). System: Drosophila Kc and S2R+ cells. Reagents: long dsRNA against Drosophila genes. Read-out: 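Raw, unnormalised count of remaining cells in each well; per-plate z-scores of cell number underlie the calls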. Direction: Kc cell number and S2R+ cell number: higher = more cells remaining. Rule for the call: 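Active when the per-plate z-score of cell number is 3 or more in the direction of fewer cells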.
The deposit covers about 21,000 reagents; this is an unselected part of those that have a named target and a result. In the full data, 429 (2%) were called active. 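Values are raw and not normalised between plates; calls rest on per-plate z-scores that were not deposited.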 A plus sign joins genes that one reagent is predicted to hit. Not stated in the record: the amount of reagent, the time to read-out.

no.	gene knocked down	amplicon	Kc cell number, rep 1	Kc cell number, rep 2	S2R+ cell number, rep 1	S2R+ cell number, rep 2	activity call
1	SK (GeneID 31456)	DRSC17387	1.59e6	1.68e6	1.07e6	1.14e6	inactive
2	SK (GeneID 31456)	DRSC17751	1.59e6	1.58e6	9.81e5	1.05e6	inactive
3	SK (GeneID 31456)	DRSC17887	1.56e6	1.54e6	9.97e5	1.15e6	inactive
4	SK (GeneID 31456)	DRSC17888	1.51e6	1.44e6	1.02e6	1.11e6	inactive
5	SK (GeneID 31456)	DRSC18353	6.52e5		9.03e5		inactive
6	CG34459 (GeneID 5740101)	DRSC06973	1.62e6	1.64e6	1.14e6	1.24e6	inactive
7	Paip2 (GeneID 41591)	DRSC14504	1.57e6	1.69e6	1.41e6	1.45e6	inactive
8	eIF4E4 (GeneID 38743)	DRSC09701	1.83e6	1.74e6	1.15e6	1.20e6	inactive
9	TwdlV (GeneID 40537)	DRSC12226	1.37e6	1.53e6	1.21e6	1.23e6	inactive
10	eve (GeneID 36039)	DRSC07614	1.68e6	1.73e6	1.43e6	1.52e6	inactive
11	Eip78C (GeneID 40345)	DRSC11864	1.32e6	1.28e6	6.75e5	7.35e5	active
12	Ugt50B3 (GeneID 246614)	DRSC04778	1.41e6	1.47e6	9.67e5	1.06e6	inactive
13	Ugt50B3 (GeneID 246614)	DRSC04779	1.39e6	1.52e6	9.62e5	1.05e6	inactive
14	PolZ1 (GeneID 47186)	DRSC06800	1.35e6	1.46e6	1.01e6	1.03e6	inactive
15	CG3819 (GeneID 40069)	DRSC10378	1.66e6	1.65e6	1.26e6	1.47e6	inactive
16	Sgs7 (GeneID 47198)	DRSC11281	1.60e6	1.36e6	1.42e6	1.54e6	inactive
17	CG33773 (GeneID 3772436)	DRSC14032	1.24e6	1.67e6	1.09e6	1.13e6	inactive
18	Lrrk (GeneID 42447)	DRSC15816	1.37e6	1.27e6	9.63e5	1.15e6	inactive
19	r + CG13012	DRSC19531	1.47e6	1.49e6	1.08e6	1.11e6	inactive
20	Snx16 (GeneID 37015)	DRSC06984	1.63e6	1.62e6	1.26e6	1.34e6	inactive
21	CG42818 + Ca-Ma2d	DRSC01963	1.65e6	1.78e6	1.28e6	1.47e6	inactive
22	CG14147 (GeneID 39227)	DRSC10149	1.41e6	1.30e6	1.29e6	1.44e6	inactive
23	CG12679 (GeneID 33031)	DRSC20493	1.39e6	1.47e6	1.02e6	1.09e6	inactive
24	CG33791 + CG12105 + CG18170	DRSC08387	1.41e6	1.49e6	1.18e6	1.24e6	inactive
25	CG14636 (GeneID 40526)	DRSC12223	1.43e6	1.54e6	1.36e6	1.45e6	inactive
26	Ir60b (GeneID 7354400)	DRSC04217	1.51e6	1.54e6	1.30e6	1.41e6	inactive
27	CG8778 (GeneID 36392)	DRSC07264	1.59e6	1.59e6	1.18e6	1.38e6	inactive
28	CG12911 (GeneID 36081)	DRSC06226	1.55e6	1.52e6	1.29e6	1.32e6	inactive
29	betaTub56D (GeneID 37238)	DRSC07583	1.68e6	1.60e6	8.89e5	1.05e6	inactive
30	P5CS (GeneID 40443)	DRSC11831	1.51e6	1.59e6	1.23e6	1.28e6	inactive
31	P5CS (GeneID 40443)	DRSC11832	1.39e6	1.43e6	1.28e6	1.34e6	inactive
32	CG33290 (GeneID 2768993)	DRSC11493	1.29e6	1.64e6	1.15e6	1.42e6	inactive
33	hdm (GeneID 31705)	DRSC18013	1.47e6	1.45e6	1.00e6	1.14e6	inactive
34	CG10265 (GeneID 36676)	DRSC05986	1.35e6	1.43e6	9.94e5	1.08e6	inactive
35	yellow-e3 (GeneID 41651)	DRSC15170	1.47e6	1.58e6	1.23e6	1.32e6	inactive
36	Hil (GeneID 37328)	DRSC05989	1.43e6	1.44e6	1.14e6	1.18e6	inactive
37	Hil (GeneID 37328)	DRSC06395	1.58e6	1.37e6	1.02e6	1.30e6	inactive
38	CG34197 (retired record) (GeneID 5740455)	DRSC05791	5.39e5		7.92e5		inactive
39	CG3548 (GeneID 37932)	DRSC04387	1.40e6	1.49e6	1.14e6	1.20e6	inactive
40	CG31463 (GeneID 40978)	DRSC14346	1.78e6	2.01e6	1.36e6	1.46e6	inactive
41	glu (GeneID 35001)	DRSC03539	1.33e6	1.41e6	1.31e6	1.36e6	inactive
42	CG17570 (GeneID 35410)	DRSC01770	5.74e5		8.58e5		inactive
43	CG17570 (GeneID 35410)	DRSC03754	1.45e6	1.57e6	1.19e6	2.85e5	inactive
44	dpr11 (GeneID 40800)	DRSC12561	1.44e6	1.54e6	1.16e6	1.28e6	inactive
45	dpr11 (GeneID 40800)	DRSC12562	1.52e6	1.59e6	1.27e6	1.39e6	inactive
46	dpr11 (GeneID 40800)	DRSC12563	1.37e6	1.55e6	1.22e6	1.33e6	inactive
47	betaTub60D (GeneID 37888)	DRSC04673	1.54e6	1.60e6	1.27e6	1.26e6	inactive
48	Rac2 (GeneID 38831)	DRSC11262	1.31e6	1.18e6	1.17e6	1.23e6	inactive
49	ais (GeneID 39979)	DRSC10523	1.46e6	1.52e6	1.20e6	1.28e6	inactive
50	CG30105 (GeneID 246459)	DRSC05668	5.98e5		8.41e5		inactive
51	CG15765 (GeneID 31513)	DRSC18071	3.36e5		6.46e5		inactive
52	Cp7Fc (GeneID 31786)	DRSC18035	1.53e6	1.49e6	1.04e6	1.19e6	inactive
53	CG17660 (GeneID 33347)	DRSC00513	1.56e6	1.48e6	8.13e5	8.74e5	inactive
54	SdhAL (GeneID 39348)	DRSC10539	1.38e6	1.44e6	1.20e6	1.17e6	inactive
55	CR30068 (retired record) (GeneID 3771873)	DRSC05477	1.57e6	1.59e6	1.07e6	1.19e6	inactive
56	Cap-D3 (GeneID 33778)	DRSC02349	1.48e6	1.34e6	1.10e6	1.28e6	inactive
57	CG15446 (GeneID 33088)	DRSC20518	1.55e6	1.60e6	1.13e6	1.27e6	inactive
58	caz (GeneID 32587)	DRSC20317	1.36e6	1.41e6	9.54e5	1.08e6	inactive
59	PGAP3 (GeneID 35570)	DRSC04989	1.28e6	1.34e6	1.14e6	1.23e6	inactive

Already shown: entries from further up.
no.	gene knocked down	amplicon	Kc cell number, rep 1	Kc cell number, rep 2	S2R+ cell number, rep 1	S2R+ cell number, rep 2	activity call
12	Ugt50B3 (GeneID 246614)	DRSC04778	1.41e6	1.47e6	9.67e5	1.06e6	inactive
13	Ugt50B3 (GeneID 246614)	DRSC04779	1.39e6	1.52e6	9.62e5	1.05e6	inactive
14	PolZ1 (GeneID 47186)	DRSC06800	1.35e6	1.46e6	1.01e6	1.03e6	inactive
15	CG3819 (GeneID 40069)	DRSC10378	1.66e6	1.65e6	1.26e6	1.47e6	inactive
16	Sgs7 (GeneID 47198)	DRSC11281	1.60e6	1.36e6	1.42e6	1.54e6	inactive
17	CG33773 (GeneID 3772436)	DRSC14032	1.24e6	1.67e6	1.09e6	1.13e6	inactive
